{"source": "patent US9000125B2", "about": "“Approach to treat intraocular hypertension” (priority 2006, dated 2015)", "key": {"[1]": {"system": "intraocular pressure (IOP) of the rabbit eye", "experiment": "IOP (TonoPen) in anaesthetized normal NZW rabbits after deposition/injection beneath the Tenon's capsule"}, "[2]": {"system": "intraocular pressure (IOP) of the rabbit eye", "type": "in vivo, rabbit (New Zealand White)"}, "production of the AH": {"system": "production of the AH", "experiment": "Appearance of intravenously injected fluorescein in the eye (production of aqueous humour)", "type": "in vivo, rabbit (New Zealand White)", "settings": "Example 1; fluorescein i.v. after 10-50 μg sub-Tenon"}, "[3]": {"system": "intraocular pressure (IOP) of the rabbit eye", "type": "in vivo, rabbit (New Zealand White)", "settings": "Example 11"}, "[4]": {"system": "intraocular pressure (IOP) of the rabbit eye", "type": "in vivo, rabbit (New Zealand White)", "settings": "Example 7, 5 days, FIG. 3"}, "[5]": {"system": "elevated IOP of buphthalmic rabbit eye", "type": "in vivo, rabbit (New Zealand White)", "settings": "Example 13"}, "[6]": {"system": "outflow of the AH through the iridocorneal angle", "experiment": "Outflow of intraocularly injected Evans blue-albumin complex through the episcleral veins", "type": "in vivo, rabbit (New Zealand White)", "settings": "Example 2; 3% Evans blue + 2% bovine serum albumin injected into both eyes after 10-50 μg sub-Tenon"}, "[7]": {"system": "trauma-elevated IOP of the rabbit eye", "experiment": "IOP elevated by sagittal rotational acceleration impulse to the head, injection between Tenon's capsule and sclera", "type": "in vivo, rabbit (New Zealand White)", "settings": "Example 14; 100 μg per kg body weight between Tenon's capsule and sclera 10-30 minutes after impact; within an hour; IOP before 35-40 mm Hg; untreated opposite eye remained elevated"}, "[8]": {"system": "intraocular pressure (IOP) of the rabbit eye", "type": "in vivo, rabbit (New Zealand White)", "settings": "Example 10"}}, "note": "Read-outs that look alike come from different tables or passages of the source. Not every detail of the peptide structures is certain; ends, links or a residue may be inferred. No end group written: not given here.", "data": [{"substance": "CHSKTR [CHSKTR]", "values": [{"measurement": "persistence of the reduction", "setting": "[1]; Example 9, 50 or 100 μg below the Tenon's capsule", "value": "at least 2 h"}, {"measurement": "drop in the IOP compared to opposite vehicle eye", "setting": "[1]; Example 9, 50 or 100 μg in 100 μl PBS with 10% ethanol, injected below the Tenon's capsule, after 30 minutes, 2 rabbits", "value": "2-4 mm Hg"}, {"measurement": "drop in the IOP compared to opposite vehicle eye", "setting": "[2]; Example 8, 2 x 50 or 100 μg (in all 100-200 μg) in PBS in the lower cul-de-sac, after one hour, 2 rabbits", "value": "2-3 mm Hg"}, {"measurement": "persistence of the reduction in the IOP", "setting": "[2]; Example 8, in all 100-200 μg in the lower cul-de-sac", "value": "at least 2 h"}]}, {"substance": "VCHSKTRSNPENNVGL [AF-16, VCHSKTRSNPENNVGL]", "values": [{"measurement": "time of appearance of the dye fluorescein, treated eye vs vehicle-treated opposite eye", "setting": "production of the AH", "value": "no difference"}, {"measurement": "transient drop of the IOP", "setting": "[1]; Example 1, 10-50 μg in PBS with 10 or 50% ethanol, unilateral, between eye bulb and Tenon's capsule, in 2 h", "value": 2.5, "unit": "mm Hg"}, {"measurement": "drop of the IOP", "setting": "[1]; Example 2, 10-50 μg in 50 or 100 μL PBS with 10 or 50% ethanol, injection between eye bulb and Tenon's capsule temporally, two rabbits, in 2 hours", "value": 2.5, "unit": "mm Hg"}, {"measurement": "persistence of the reduction in the IOP", "setting": "[1]; Example 4, up to 100 μg beneath the Tenon's capsule", "value": "at least 4 h"}, {"measurement": "drop in the IOP compared to opposite vehicle eye", "setting": "[1]; Example 4, up to 100 μg in PBS with 10% ethanol (50-250 μL) beneath the Tenon's capsule, in one hour, 3 rabbits", "value": "up to 5 mm Hg"}, {"measurement": "drop in the IOP in either eye compared to IOP just before deposition", "setting": "[3]; intranasal 50, 100 or 1000 μg/kg body weight in PBS, in an hour, 3 rabbits", "value": "at least 2 mm Hg"}, {"measurement": "persistence of the reduction of the IOP", "setting": "[3]; intranasal, high dose (up to 1000 μg/kg)", "value": "at least 3 h"}, {"measurement": "effect on the IOP vs vehicle PBS", "setting": "[4]; 50 μg in 50 μL PBS topically, n=10", "value": "had a lowering effect on the IOP"}, {"measurement": "effect on the IOP relative to Timolol (125 μg)", "setting": "[4]; 50 μg topically", "value": "comparable to those of Timolol®"}, {"measurement": "drop of the IOP in the normal opposite eye", "setting": "[5]; 50 μg beneath the Tenon's capsule, IOP before 11-12 mm Hg, first injection", "value": "about 2 mm Hg"}, {"measurement": "IOP in the buphthalmic eye after treatment", "setting": "[5]; 50 μg in 100 μL PBS with 10% ethanol beneath the Tenon's capsule, in an hour, IOP before 30-32 mm Hg", "value": "14-16 mm Hg"}, {"measurement": "IOP in the buphthalmic eye after second injection", "setting": "[5]; next day, injection once more, in 2 hours, IOP before just above 30 mm Hg", "value": "15-16 mm Hg"}, {"measurement": "reduction of the IOP in the right (normal) eye after second injection", "setting": "[5]; next day, same dose", "value": "1-2 mm Hg"}, {"measurement": "exit of Evans blue dye from the eye through the episcleral veins, pre-treated eye vs vehicle-treated opposite eye", "setting": "[6]", "value": "more rapidly"}, {"measurement": "IOP after treatment of trauma-elevated IOP", "setting": "[7]", "value": "return of the IOP to roughly normal levels"}, {"measurement": "drop of the IOP compared to opposite vehicle eye", "setting": "[2]; Example 5, 2 x 25 μg (in all 50 μg) in PBS in the cul-de-sac, after one hour, 2 rabbits", "value": "1.5-2.5 mm Hg"}, {"measurement": "persistence of the reduction in the IOP", "setting": "[2]; Example 5, in all 50 μg in the cul-de-sac", "value": "at least 4 h"}, {"measurement": "drop in the IOP compared to opposite vehicle eye", "setting": "[2]; Example 6, 2 x 50 μg (in all 100 μg) in PBS in the lower cul-de-sac, after one hour, 2 rabbits", "value": "2-4 mm Hg"}, {"measurement": "persistence of the reduction in the IOP", "setting": "[2]; Example 6, in all 100 μg in the lower cul-de-sac", "value": "at least 4 h"}, {"measurement": "persistence of the reduction in the IOP", "setting": "[8]; intravenous 50, 100 or 1000 μg/kg", "value": "at least 2 h"}, {"measurement": "drop in the IOP in either eye compared to IOP just before injection", "setting": "[8]; intravenous 50 or 100 or 1000 μg/kg body weight in PBS with 10% ethanol, after one hour", "value": "2-3 mm Hg"}]}]}
